{"source": "paper PMC10943695", "about": "(Frontiers in Pharmacology, 2024)", "assay": "general procedure: solution-phase peptide synthesis; HATU/DIEA", "note": "Strings that start with PEPTIDE1 are HELM notation: dots part the residues, brackets hold end groups and non-standard residues.", "data": [{"substance": "PEPTIDE1{[BndPEG3Pr].D.P.V.[KSPi11N]}$$$$V2.0", "values": [{"measurement": "final LC-MS purity", "setting": "conjugation step, LC-MS, TFA salt (intermediates), disodium salt (Compound 4)", "value": 99, "unit": "% purity"}, {"measurement": "conjugation yield", "setting": "conjugation step, TFA salt (intermediates), disodium salt (Compound 4)", "value": 78, "unit": "% yield"}, {"measurement": "purity (crude or final not stated)", "setting": "late stage modification step, LC-MS, TFA salt (intermediates), disodium salt (Compound 4)", "value": 100, "unit": "% purity"}, {"measurement": "step yield", "setting": "late stage modification step, TFA salt (intermediates), disodium salt (Compound 4)", "value": 99, "unit": "% yield"}]}, {"substance": "PEPTIDE1{[BndPEG3Pr].D.P.V.[MMAE-O]}$$$$V2.0", "values": [{"measurement": "purity (crude or final not stated)", "setting": "late stage modification step, LC-MS, disodium salt", "value": 96, "unit": "% purity"}, {"measurement": "step yield", "setting": "late stage modification step, disodium salt", "value": 96, "unit": "% yield"}]}, {"substance": "Trifluoroacetic acid.N-[(benzyloxy)carbonyl]-N-methyl-L-valyl-N-[(3R,4S,5S)-3-methoxy-1-{(2S)-2-[(1R,2R)-1-methoxy-2-methyl-3-oxo-3-{[(1S,2R)-1-phenyl-1-(L-valyloxy)propan-2-yl]amino}propyl]pyrrolidin-1-yl}-5-methyl-1-oxoheptan-4-yl]-N-methyl-L-valinamide (1/1)", "values": [{"measurement": "crude LC-MS purity", "setting": "late stage modification step, LC-MS, TFA salt", "value": 100, "unit": "% purity"}]}]}
